Assay results published in PMC5112536.
No constants are given. Whether binding was seen depends on the method and setting. In cells and extracts the contact can be indirect. Some binding calls cover weakened binding; strength is not graded here. Where a sequence is shown, tags or fusion partners need not be part of it.

T1: FLAG-tagged full length OASIS (human) (UniProt Q96BA8)
T1 sequence: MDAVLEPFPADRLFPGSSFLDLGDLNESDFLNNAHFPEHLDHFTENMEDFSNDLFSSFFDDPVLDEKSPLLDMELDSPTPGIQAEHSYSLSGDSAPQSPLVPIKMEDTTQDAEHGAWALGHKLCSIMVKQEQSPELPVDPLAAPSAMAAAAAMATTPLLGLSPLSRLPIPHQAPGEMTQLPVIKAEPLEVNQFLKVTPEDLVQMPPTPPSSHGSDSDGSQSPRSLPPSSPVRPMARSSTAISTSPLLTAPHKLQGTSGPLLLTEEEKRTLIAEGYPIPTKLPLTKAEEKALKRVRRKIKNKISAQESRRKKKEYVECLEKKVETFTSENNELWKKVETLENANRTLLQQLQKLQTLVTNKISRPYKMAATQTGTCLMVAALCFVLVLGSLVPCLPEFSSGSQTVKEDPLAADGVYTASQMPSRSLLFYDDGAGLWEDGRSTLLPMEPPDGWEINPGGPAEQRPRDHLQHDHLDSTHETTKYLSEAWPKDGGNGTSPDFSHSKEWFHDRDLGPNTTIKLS

T2: Myc-tagged full-length AIbZIP (human) (UniProt Q8TEY5)
T2 sequence: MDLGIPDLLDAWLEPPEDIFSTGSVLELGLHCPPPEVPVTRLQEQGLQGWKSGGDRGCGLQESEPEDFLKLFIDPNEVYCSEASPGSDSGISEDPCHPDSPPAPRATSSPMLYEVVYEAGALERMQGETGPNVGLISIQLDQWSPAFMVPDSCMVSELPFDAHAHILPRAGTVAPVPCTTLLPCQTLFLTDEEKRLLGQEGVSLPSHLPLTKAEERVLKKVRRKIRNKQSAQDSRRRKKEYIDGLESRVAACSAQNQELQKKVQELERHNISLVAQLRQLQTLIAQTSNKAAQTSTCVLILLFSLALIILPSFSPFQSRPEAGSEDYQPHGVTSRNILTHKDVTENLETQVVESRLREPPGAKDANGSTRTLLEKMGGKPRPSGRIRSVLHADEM


What was measured:
[1] = target: T1, FLAG-tagged full length OASIS (human); assay: co-IP; HEK293T cells co-transfected with the expression vectors; lysates incubated with anti-FLAG or anti-Myc antibodies overnight, protein G-agarose at 4 °C for 3 hours, washed with TNE buffer (10 mM Tris, 1 mM EDTA, 150 mM NaCl); western blot with anti-FLAG or anti-Myc
[2] = target: T2, Myc-tagged full-length AIbZIP (human); assay: as above

binding [1]	binding [2]	Binder
binds	–	Myc-tagged full-length AIbZIP (protein, UniProt Q8TEY5 1-395) MDLGIPDLLDAWLEPPEDIFSTGSVLELGLHCPPPEVPVTRLQEQGLQGWKSGGDRGCGLQESEPEDFLKLFIDPNEVYCSEASPGSDSGISEDPCHPDSPPAPRATSSPMLYEVVYEAGALERMQGETGPNVGLISIQLDQWSPAFMVPDSCMVSELPFDAHAHILPRAGTVAPVPCTTLLPCQTLFLTDEEKRLLGQEGVSLPSHLPLTKAEERVLKKVRRKIRNKQSAQDSRRRKKEYIDGLESRVAACSAQNQELQKKVQELERHNISLVAQLRQLQTLIAQTSNKAAQTSTCVLILLFSLALIILPSFSPFQSRPEAGSEDYQPHGVTSRNILTHKDVTENLETQVVESRLREPPGAKDANGSTRTLLEKMGGKPRPSGRIRSVLHADEM
–	binds	FLAG-tagged full length OASIS (protein, UniProt Q96BA8 1-519) MDAVLEPFPADRLFPGSSFLDLGDLNESDFLNNAHFPEHLDHFTENMEDFSNDLFSSFFDDPVLDEKSPLLDMELDSPTPGIQAEHSYSLSGDSAPQSPLVPIKMEDTTQDAEHGAWALGHKLCSIMVKQEQSPELPVDPLAAPSAMAAAAAMATTPLLGLSPLSRLPIPHQAPGEMTQLPVIKAEPLEVNQFLKVTPEDLVQMPPTPPSSHGSDSDGSQSPRSLPPSSPVRPMARSSTAISTSPLLTAPHKLQGTSGPLLLTEEEKRTLIAEGYPIPTKLPLTKAEEKALKRVRRKIKNKISAQESRRKKKEYVECLEKKVETFTSENNELWKKVETLENANRTLLQQLQKLQTLVTNKISRPYKMAATQTGTCLMVAALCFVLVLGSLVPCLPEFSSGSQTVKEDPLAADGVYTASQMPSRSLLFYDDGAGLWEDGRSTLLPMEPPDGWEINPGGPAEQRPRDHLQHDHLDSTHETTKYLSEAWPKDGGNGTSPDFSHSKEWFHDRDLGPNTTIKLS
